This is an account of results in PMC7738167.

By UniProt entry, the sequences of proteins in these tests, tags left out.
UniProt P17769: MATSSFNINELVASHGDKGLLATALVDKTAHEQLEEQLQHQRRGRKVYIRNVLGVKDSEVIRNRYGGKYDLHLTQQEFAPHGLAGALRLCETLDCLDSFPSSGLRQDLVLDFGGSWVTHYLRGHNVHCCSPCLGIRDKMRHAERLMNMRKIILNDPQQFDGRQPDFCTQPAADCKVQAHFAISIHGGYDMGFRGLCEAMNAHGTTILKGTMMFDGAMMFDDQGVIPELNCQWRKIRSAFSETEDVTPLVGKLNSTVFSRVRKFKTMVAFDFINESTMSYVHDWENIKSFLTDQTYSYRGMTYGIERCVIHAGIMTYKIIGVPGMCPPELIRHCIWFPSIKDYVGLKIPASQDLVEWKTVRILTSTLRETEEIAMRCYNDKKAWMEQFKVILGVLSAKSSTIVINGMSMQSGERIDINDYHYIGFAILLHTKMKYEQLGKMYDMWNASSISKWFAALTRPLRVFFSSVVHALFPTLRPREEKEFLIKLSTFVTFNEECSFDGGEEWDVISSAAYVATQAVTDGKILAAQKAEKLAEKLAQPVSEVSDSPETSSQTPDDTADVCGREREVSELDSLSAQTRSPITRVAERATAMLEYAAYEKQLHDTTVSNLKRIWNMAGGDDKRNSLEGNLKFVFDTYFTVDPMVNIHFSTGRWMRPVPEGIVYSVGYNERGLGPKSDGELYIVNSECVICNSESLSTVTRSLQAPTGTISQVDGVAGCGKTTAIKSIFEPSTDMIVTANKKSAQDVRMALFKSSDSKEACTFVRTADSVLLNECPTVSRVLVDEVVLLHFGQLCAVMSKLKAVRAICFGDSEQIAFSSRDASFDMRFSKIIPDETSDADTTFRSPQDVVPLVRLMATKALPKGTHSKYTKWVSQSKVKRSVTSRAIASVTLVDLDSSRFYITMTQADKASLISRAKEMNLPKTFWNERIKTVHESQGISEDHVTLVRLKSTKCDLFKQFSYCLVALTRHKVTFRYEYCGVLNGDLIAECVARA

Assay [1] concerns the target T1, Arabidopsis ARGONAUTE 1 fused to a split YFP half (Arabidopsis thaliana) (UniProt O04379).
T1 sequence: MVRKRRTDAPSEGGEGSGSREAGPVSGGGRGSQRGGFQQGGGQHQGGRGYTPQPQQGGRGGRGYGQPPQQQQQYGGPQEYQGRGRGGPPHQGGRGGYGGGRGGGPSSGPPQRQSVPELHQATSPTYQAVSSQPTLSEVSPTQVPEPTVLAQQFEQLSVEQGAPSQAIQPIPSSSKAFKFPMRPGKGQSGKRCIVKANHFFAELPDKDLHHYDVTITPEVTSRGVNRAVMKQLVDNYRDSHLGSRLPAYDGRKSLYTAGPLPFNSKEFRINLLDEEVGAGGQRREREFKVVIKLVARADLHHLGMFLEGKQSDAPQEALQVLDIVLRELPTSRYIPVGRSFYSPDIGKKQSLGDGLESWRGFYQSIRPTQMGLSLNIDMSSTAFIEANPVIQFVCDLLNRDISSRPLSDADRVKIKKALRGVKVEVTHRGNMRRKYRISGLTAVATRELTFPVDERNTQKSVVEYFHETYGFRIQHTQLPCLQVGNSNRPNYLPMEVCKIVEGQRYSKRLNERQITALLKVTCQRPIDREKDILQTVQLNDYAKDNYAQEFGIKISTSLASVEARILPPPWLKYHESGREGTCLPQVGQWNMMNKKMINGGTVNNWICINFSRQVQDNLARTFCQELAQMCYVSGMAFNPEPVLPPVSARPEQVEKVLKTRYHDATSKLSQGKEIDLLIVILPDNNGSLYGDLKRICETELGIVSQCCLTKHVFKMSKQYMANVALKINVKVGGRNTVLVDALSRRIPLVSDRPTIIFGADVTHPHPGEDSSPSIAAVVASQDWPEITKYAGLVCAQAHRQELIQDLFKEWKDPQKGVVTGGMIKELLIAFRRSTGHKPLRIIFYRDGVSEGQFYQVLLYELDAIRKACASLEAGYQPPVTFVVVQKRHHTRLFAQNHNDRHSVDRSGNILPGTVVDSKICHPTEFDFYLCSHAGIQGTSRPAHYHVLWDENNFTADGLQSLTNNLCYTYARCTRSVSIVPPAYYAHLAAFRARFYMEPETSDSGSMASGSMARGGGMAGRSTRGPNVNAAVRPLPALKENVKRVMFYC
The assay is described as follows: split reporter; sYFPn and sYFPc fusions co-agroinfiltrated into N. benthamiana leaves, YFP fluorescence by confocal laser scanning microscopy.

The target of assay [2] is cucumber mosaic virus (Fny strain) 1a protein fused to a split YFP half (cucumber mosaic virus, strain Fny) (UniProt P17769). The description is as above.
Assay [3] addresses cucumber mosaic virus (Fny strain) 1a protein with N-terminal red fluorescent protein (cucumber mosaic virus, strain Fny) (UniProt P17769). The assay is described as follows: co-IP; extracts of agroinfiltrated N. benthamiana leaves, RFP-Trap beads, immunoblot with anti-GFP and anti-RFP. In general terms: In western blotting, separated proteins are transferred to a membrane and probed.

Results are given in words; binding and its absence hold for the method and conditions named. In cells and extracts the contact can be indirect. Some binding calls cover weakened binding; strength is not graded here. For part of these data: Where a sequence is shown, tags or fusion partners need not be part of it.

As for “cucumber mosaic virus (Fny strain) 1a protein fused to a split YFP half (from UniProt P17769 1-993)”, the results for the binding entry in assay [1] and in assay [2] were “no binding” and “binds”, respectively.

B1: Arabidopsis ARGONAUTE 1 fused to green fluorescent protein (protein, UniProt O04379 1-1048)
chain: T1 sequence
For the molecule B1, the binding result in assay [3] is listed as “no binding”.
